Laboratory results: patent US7763287B2, “Extract of Cercis chinensis having anti-oxidant activity and anti-aging activity, and cosmetical composition containing the extract for anti-oxidation, skin-aging protection and wrinkle improvement” (Hankook Pharm. Co., Inc., priority 2002, dated 2010)
For at least one compound, name, drawing or mass did not settle the structure.

Tests used:
[1] = Nitric oxide scavenging activity; type: biochemical; design: concentration or dose not given beside the values
[2] = DPPH radical scavenging activity; type: biochemical
Method: In order to extract an effective ingredient having an anti-oxidant activity from Cercis chinensis, an experiment was performed following the procedure represented in a schematic diagram of FIG. 1. Particularly, 1 kg of leaves and stems of Cercis chinensis, dried in shadow, were grinded to powder using a pulverizer, which was extracted by ethanol (EtOH) at room temperature twice at intervals of two weeks. For the extraction, ethanol solutions were prepared by adding ethanol gradually, 10% at a time, from 0% to 100%. The prepared ethanol solutions were used for the extraction. […] But, it looses absorbance when being scavenged. Based on that point, an anti-oxidant activity can be measured using DPPH. […] Then, each solution was distributed into a 96 well plate by 10 μl each, into which 190 μl of DPPH(Sigma, St. Louis, Mo, USA) solution whose ethanol concentration was 2×10^−4 M/ml was added. The plate was just left at room temperature for 30 minutes. Finally, OD517 was measured at 517 nm. For a control, DMSO was added instead of the sample, and changes of optical density were investigated. […]
In order to identify a fraction having an anti oxidant activity among hexane Fr, EtOAc Fr and BuOH Fr obtained above, a DPPH radical scavenging activity was measured using each extract of each fraction following the method used above. […]

SMILES | Nitric oxide scavenging activity (%) [1] [%] | DPPH radical scavenging activity (in words) [2]
Oc1cc(O)cc(/C=C/c2ccc(O)c(O)c2)c1 [Chemical Formula 5, piceatannol] | 30.8 ± 1.9 | –
C[C@@H]1O[C@@H](Oc2c(-c3ccc(O)cc3)oc3cc(O)cc(O)c3c2=O)[C@H](O)[C@H](O)[C@H]1O [Chemical Formula 10, afzelin] | 5.9 ± 0.5 | strong radical scavenging activity
